# Measured values: patent US20180195056A1
# Chains of the proteins cited; added tags and fusions are not shown. Lines headed by an entry give the natural chain unless they say otherwise; changes in a name come on top.
# UniProt P60519: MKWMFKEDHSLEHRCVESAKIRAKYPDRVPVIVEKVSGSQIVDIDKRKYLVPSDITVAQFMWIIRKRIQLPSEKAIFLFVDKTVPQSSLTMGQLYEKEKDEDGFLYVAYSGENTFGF
# UniProt Q640G7: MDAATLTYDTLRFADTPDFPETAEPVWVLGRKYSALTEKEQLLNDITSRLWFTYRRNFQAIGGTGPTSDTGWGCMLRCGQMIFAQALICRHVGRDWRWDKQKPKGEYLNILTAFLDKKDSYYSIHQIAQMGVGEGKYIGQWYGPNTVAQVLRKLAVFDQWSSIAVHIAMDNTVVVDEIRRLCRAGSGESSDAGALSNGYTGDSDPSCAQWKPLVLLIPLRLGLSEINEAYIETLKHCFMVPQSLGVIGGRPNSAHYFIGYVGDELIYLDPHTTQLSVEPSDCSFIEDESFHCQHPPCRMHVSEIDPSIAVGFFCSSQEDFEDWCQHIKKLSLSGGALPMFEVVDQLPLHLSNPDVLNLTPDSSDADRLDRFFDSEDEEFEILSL
# No constants are given. Whether binding was seen depends on the method and setting. Binding seen in cells or lysates may run through a third protein. Some binding calls cover weakened binding; strength is not graded here.
# Experiments:
# [1] = target: His14-Spacer-xlGATE16-GFP (Xenopus laevis) (UniProt P60519); assay: competitive pull-down, equimolar protease mixture (10 µM each) on immobilized His14-Spacer-xlGATE16-GFP, SDS-PAGE
# [2] = target: His14-Spacer-xlGATE16-GFP (Xenopus laevis) (UniProt P60519); assay: competitive pull-down on immobilized xlGATE16, SDS-PAGE (FIG. 6B)
# [3] = target: His14-Spacer-xlGATE16-GFP (Xenopus laevis) (UniProt P60519); assay: discussion of the pull-down and dilution experiments of FIG. 6
binding [1],binding [2],binding [3],Substance
binds,binds,,xlAtg4B^25-384 (from UniProt Q640G7 25-384) (enzyme)
binds,binds,,xlAtg4B^14-384 (from UniProt Q640G7 14-384) (enzyme)
binds,binds,binds,"full-length xlAtg4B (Xenopus laevis Atg4B, residues 1-384) (from UniProt Q640G7 1-384) (enzyme)"
